Reference: article PMC10899256
Where a chain is given by its changes, count along the chain named. No constants are given. Whether binding was seen depends on the method and setting. In cells and extracts the contact can be indirect. Some binding calls cover weakened binding; strength is not graded here. Tags and fused reporters may be left off the sequences shown.

By UniProt entry, the sequences of proteins in these tests, tags left out. Where a name states a change or a piece, a line headed by the entry shows the natural chain unless it says otherwise. Chains listed by the source or under a name are the forms on record and can include a tag or linker. Residues count along the entry.
UniProt Q9NUY8: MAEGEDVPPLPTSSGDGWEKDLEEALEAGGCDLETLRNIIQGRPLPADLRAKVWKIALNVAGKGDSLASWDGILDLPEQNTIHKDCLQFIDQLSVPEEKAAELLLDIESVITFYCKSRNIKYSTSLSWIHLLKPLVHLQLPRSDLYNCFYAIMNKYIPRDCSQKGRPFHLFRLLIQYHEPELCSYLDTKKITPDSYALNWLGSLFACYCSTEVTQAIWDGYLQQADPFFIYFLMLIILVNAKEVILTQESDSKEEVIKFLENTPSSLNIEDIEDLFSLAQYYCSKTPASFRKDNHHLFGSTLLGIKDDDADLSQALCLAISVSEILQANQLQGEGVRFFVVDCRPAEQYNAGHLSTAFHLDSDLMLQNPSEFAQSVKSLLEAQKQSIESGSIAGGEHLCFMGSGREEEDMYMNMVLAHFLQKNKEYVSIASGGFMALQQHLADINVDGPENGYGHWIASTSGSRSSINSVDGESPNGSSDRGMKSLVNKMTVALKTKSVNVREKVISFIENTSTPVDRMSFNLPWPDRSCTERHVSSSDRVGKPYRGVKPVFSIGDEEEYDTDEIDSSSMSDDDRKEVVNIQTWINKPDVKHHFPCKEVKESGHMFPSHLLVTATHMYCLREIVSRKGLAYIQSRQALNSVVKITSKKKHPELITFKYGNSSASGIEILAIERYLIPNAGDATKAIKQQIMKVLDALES
GST-TBC1D23 PH (PH domain, residues 545–684), expressed in HEK293T: residues 560-699 of Q9NUY8
mCherry-TBC1D23 WT (Q9NUY8-2, form named): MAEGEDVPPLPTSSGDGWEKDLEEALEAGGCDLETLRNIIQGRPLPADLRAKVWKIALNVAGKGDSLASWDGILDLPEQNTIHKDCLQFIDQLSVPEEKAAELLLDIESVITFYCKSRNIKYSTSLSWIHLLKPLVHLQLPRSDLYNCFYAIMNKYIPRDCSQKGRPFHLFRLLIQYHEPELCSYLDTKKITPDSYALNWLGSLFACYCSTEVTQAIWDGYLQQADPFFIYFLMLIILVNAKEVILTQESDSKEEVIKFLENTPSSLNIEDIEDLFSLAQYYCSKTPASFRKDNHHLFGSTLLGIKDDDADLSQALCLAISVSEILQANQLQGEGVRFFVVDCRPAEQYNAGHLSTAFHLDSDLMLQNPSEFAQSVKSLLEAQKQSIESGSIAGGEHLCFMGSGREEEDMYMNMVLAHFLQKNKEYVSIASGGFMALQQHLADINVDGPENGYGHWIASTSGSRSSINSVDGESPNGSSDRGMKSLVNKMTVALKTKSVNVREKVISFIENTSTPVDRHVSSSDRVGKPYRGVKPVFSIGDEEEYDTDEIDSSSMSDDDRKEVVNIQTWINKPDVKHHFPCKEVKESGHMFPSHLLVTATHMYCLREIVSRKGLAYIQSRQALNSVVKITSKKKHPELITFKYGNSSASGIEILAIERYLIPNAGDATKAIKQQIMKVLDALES

Key:
[1] = molecular target: T1, Flag-LKB1 (full-length LKB1) (human) (UniProt Q15831); assay: co-IP; co-transfected HEK293T; lysate in NETN buffer, anti-Flag Affinity Gel overnight at 4 °C, immunoblot
T1 sequence: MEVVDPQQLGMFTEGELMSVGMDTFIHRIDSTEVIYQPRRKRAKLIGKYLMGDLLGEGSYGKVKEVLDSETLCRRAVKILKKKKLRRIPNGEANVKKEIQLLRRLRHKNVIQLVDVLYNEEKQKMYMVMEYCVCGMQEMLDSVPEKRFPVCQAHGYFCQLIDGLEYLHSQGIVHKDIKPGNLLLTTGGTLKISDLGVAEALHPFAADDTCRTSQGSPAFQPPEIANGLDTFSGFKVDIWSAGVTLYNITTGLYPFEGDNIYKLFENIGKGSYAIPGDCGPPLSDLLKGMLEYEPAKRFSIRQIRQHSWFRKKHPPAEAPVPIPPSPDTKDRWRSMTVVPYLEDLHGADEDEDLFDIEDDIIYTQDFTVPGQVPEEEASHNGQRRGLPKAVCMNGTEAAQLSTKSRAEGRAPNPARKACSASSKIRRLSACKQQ

[2] = molecular target: T2, GFP-tagged LKB1 WT (1–433) (human) (UniProt Q15831); assay: co-IP; transfected HEK293T; lysate in NETN buffer, GFP beads 2 h at 4 °C, immunoblot
T2 sequence: T1 sequence

[3] = molecular target: T3, GFP-tagged LKB1 F354A (1–433) (human) (UniProt Q15831); assay: as above
T3 sequence: T1 sequence with F354A

[4] = molecular target: T4, GFP-tagged LKB1 F354L (1–433) (human) (UniProt Q15831); assay: as above
T4 sequence: T1 sequence with F354L

Row | binding [1] | binding [2] | binding [3] | binding [4] | Substance
1 | binds | – | – | – | GST-TBC1D23 PH (PH domain, residues 545–684), expressed in HEK293T (from UniProt Q9NUY8-2 545-684) (domain or fragment)
2 | – | binds | binds | binds | TBC1D23 co-precipitated with GFP-tagged LKB1 (Fig. 8a) (from UniProt Q9NUY8 1-699)
3 | binds | – | – | – | mCherry-TBC1D23 WT (from UniProt Q9NUY8-2 1-684)
